Test results as given in patent US6645283B1, “Anthrapyridone compounds, water-based magenta ink composition, and method of ink-jet printing” (Nippon Kayaku Kabushiki Kaisha, priority 1998, dated 2003).
Some results were stated once for a whole list of compounds, not compound by compound.

Assay: Solubility in water of the dyestuff
Format: physicochemical
Details: under an alkaline condition (pH 8-9)
Description: (5) The wet cake obtained in above (4)was added in 1500 parts of methanol, followed by heating at 60-65° C. and stirring for 1 hr. The crystal was filtered to separate, washed with methanol and dried to obtain 42.0 parts of the compound of No.2 as a red crystal. λmax:523 nm (in water, the ammonium salt); solubility in water:100 g/l or above.
(2) The wet cake obtained in this (1) was desalted as in Example 1(5) to obtain 35.0 parts of the compound of No.5 as a red crystal. λmax:522 nm (in water, the ammonium salt); solubility in water:100 g/l or more.
(2) To the reaction solution of the above (1) was added 4.7 parts of the compound of Formula (5) (R1=CH3, R2=H) obtained as in Example 1 (1) and 1(2), followed by raising the temperature and dropping 10% aqueous sodium hydroxide at 60-65° C. to maintain the pH at 4-5 for 1 hr for the reaction. The solution was maintained for 1 hr at pH 6.5-7.0, and filtered to remove a little insoluble matter, to obtain the reaction solution containing the compound of No.15. The reaction solution was diluted with water to obtain 250 parts of the diluted solution, followed by heating at 60-65° C., adding 50 parts of sodium chloride and stirring for about 30 min to deposit crystal. After stirring for 1 hr, the crystal was filtered to separate, washed with 100 parts of 10% aqueous sodium chloride, and dried to obtain 8.9 parts of the sodium salt of the compound of No.15 as a red crystal. λmax:527 nm (in water); solubility in water:100 g/l or more.
The anthrapyridone dyestuff of the present invention is suitable for an ink-jet magenta dyestuff because it has values in hue and brightness close to those of the JNC standard magenta. The dyestuff of the present invention also, when used on a special paper, can provide good light fastness and water fastness. […] Further, the dyestuffs of No.2, No.5 and No.15 obtained in Example 1 to 3 have their water-solubilities of 100 g/l or more under an alkaline condition (pH 8-9) and therefore enable to prepare stable inks for ink-jetting. […]

water-solubilities | SMILES
≥ 100 g/L | Cn1c(=O)cc2c3c(c(Nc4cc(Nc5nc(NCCS(=O)(=O)O)nc(Nc6cc(C(=O)O)cc(C(=O)O)c6)n5)ccc4S(=O)(=O)O)ccc31)C(=O)c1ccccc1-2 [No.2]
≥ 100 g/L | Cn1c(=O)cc2c3c(c(Nc4cc(Nc5nc(NCC(=O)O)nc(Nc6cc(C(=O)O)cc(C(=O)O)c6)n5)ccc4S(=O)(=O)O)ccc31)C(=O)c1ccccc1-2 [No.5]
≥ 100 g/L | Cn1c(=O)cc2c3c(c(Nc4cc(Nc5nc(Cl)nc(Nc6cc7c(S(=O)(=O)O)cc(S(=O)(=O)O)cc7cc6S(=O)(=O)O)n5)ccc4S(=O)(=O)O)ccc31)C(=O)c1ccccc1-2 [No.15]
